The values below come from publication PMC12607013.

These are yes or no findings as the source states them, for the method shown. In cells and extracts the contact can be indirect. Some binding calls cover weakened binding; strength is not graded here. For some assays here: Where a sequence is shown, tags or fusion partners need not be part of it.

Experiment [1] has as its target T1, FLAG-tagged full-length OTUD4 (ovarian tumor family deubiquitinase 4), WT (human) (UniProt Q01804).
T1 sequence: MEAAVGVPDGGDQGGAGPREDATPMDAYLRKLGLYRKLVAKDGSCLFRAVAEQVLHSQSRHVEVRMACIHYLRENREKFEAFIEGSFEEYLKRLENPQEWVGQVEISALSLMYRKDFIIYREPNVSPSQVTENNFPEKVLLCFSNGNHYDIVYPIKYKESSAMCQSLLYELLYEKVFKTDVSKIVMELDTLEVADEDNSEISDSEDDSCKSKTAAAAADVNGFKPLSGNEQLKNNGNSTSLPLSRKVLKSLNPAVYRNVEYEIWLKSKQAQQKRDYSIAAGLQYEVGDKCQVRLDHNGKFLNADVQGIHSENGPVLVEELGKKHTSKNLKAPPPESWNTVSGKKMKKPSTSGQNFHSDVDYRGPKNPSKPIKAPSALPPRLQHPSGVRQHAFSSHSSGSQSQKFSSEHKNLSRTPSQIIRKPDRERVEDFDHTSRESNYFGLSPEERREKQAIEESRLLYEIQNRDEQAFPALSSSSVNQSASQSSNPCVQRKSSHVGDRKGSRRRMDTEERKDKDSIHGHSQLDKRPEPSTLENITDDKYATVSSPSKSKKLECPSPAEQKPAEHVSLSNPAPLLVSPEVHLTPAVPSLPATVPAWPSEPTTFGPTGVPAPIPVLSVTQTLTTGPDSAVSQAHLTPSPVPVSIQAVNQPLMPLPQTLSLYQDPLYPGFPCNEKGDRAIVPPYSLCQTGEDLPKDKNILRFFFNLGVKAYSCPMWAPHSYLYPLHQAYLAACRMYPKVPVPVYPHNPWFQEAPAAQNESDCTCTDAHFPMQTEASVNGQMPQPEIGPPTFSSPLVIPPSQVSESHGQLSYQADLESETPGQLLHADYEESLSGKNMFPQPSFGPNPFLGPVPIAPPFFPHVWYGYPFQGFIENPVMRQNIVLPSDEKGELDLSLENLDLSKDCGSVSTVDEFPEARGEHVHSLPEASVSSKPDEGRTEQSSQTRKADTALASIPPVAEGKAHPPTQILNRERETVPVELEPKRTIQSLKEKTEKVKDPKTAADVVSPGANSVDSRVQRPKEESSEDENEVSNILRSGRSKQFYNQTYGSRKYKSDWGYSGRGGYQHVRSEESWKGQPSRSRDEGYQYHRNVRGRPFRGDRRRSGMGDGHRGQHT
Nature of the experiment: co-IP; HEK293T cells transfected with the indicated plasmids, 48 to 72 h; clarified lysates incubated overnight at 4 °C with anti-FLAG M2-agarose or anti-HA-agarose beads; Western blot. (In general: A western blot detects proteins with antibodies after separation by electrophoresis.)

Experiment [2] concerns the target T2, OTUD4 N-terminal OTU domain (aa 1–180) (human) (UniProt Q01804).
T2 sequence: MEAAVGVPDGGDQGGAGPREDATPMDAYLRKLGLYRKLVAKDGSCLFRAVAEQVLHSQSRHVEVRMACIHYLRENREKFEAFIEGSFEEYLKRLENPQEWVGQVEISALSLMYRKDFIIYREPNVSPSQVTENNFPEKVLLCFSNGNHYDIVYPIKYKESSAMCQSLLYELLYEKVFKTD
The experiment is described as above.

The target in experiment [3] is T3, FLAG-tagged full-length OTUD4 H148Y (tumor-associated variant) (human) (UniProt Q01804).
T3 sequence: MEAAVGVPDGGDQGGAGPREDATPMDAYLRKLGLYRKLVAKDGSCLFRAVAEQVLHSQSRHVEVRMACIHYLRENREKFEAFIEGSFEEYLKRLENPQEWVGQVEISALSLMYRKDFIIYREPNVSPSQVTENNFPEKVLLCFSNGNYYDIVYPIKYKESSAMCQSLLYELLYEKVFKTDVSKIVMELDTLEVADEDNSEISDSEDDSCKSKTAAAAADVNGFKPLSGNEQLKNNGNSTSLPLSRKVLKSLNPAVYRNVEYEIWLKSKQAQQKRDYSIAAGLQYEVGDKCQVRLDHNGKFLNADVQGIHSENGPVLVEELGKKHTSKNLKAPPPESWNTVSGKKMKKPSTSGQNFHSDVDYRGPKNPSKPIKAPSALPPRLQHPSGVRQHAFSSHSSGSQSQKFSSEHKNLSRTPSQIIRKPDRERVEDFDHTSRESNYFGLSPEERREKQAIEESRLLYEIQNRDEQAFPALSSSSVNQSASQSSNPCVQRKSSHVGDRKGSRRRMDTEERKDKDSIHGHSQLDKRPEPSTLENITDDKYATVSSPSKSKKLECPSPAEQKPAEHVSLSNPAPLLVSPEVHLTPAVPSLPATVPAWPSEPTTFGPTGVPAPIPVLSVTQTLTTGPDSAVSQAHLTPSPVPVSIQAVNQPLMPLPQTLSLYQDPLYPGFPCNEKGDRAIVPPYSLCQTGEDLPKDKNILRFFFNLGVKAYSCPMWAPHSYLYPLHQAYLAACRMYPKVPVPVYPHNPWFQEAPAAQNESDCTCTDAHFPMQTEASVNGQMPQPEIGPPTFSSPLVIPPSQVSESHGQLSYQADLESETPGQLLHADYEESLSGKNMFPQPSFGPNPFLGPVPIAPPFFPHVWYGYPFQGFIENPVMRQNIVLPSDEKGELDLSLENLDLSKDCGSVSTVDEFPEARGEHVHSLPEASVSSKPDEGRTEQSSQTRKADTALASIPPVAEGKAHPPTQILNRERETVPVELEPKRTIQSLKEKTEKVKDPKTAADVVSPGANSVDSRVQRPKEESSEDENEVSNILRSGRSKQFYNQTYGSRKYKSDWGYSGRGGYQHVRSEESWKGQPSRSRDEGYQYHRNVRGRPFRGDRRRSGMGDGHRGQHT
The experiment is described as above.

Experiment [4] deals with T4, endogenous OTUD4 in H1299 NSCLC cells (human (endogenous in H1299)) (UniProt Q01804).
T4 sequence: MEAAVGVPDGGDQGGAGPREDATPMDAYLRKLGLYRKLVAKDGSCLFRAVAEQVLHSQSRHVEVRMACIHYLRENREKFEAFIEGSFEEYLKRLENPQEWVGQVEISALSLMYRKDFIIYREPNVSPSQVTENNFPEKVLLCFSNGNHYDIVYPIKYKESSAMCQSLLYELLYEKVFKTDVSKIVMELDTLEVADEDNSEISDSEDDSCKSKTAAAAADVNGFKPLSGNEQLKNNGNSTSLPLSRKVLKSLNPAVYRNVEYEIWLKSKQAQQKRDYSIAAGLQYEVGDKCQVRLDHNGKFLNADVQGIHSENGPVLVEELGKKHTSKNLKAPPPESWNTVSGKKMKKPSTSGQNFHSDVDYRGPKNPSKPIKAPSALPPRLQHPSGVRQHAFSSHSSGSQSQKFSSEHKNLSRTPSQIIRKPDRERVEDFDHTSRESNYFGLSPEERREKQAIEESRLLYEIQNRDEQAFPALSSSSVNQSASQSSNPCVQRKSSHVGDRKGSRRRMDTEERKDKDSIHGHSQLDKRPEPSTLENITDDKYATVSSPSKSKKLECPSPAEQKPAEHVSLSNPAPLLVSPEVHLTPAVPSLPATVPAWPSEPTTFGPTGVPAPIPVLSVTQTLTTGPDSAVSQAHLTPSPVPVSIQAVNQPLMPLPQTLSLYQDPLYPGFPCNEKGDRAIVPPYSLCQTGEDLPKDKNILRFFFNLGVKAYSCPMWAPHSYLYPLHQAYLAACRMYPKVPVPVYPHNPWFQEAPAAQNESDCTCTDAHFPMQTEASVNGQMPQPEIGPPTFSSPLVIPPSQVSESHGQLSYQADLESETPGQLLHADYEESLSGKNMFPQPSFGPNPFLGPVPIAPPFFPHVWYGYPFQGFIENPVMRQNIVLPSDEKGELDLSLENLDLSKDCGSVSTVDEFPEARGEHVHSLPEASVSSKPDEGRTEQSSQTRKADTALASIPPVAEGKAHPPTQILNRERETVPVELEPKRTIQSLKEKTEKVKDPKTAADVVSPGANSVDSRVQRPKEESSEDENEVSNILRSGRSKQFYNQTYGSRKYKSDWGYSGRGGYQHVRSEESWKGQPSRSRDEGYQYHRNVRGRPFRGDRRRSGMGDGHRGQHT
The experiment can be described thus: co-IP; endogenous proteins in H1299 NSCLC cells; reciprocal co-IP with antibodies to OTUD4 and to TAK1.

The target of experiment [5] is T5, MBP-OTUD4 (maltose-binding protein-tagged OTUD4) (human) (UniProt Q01804).
T5 sequence: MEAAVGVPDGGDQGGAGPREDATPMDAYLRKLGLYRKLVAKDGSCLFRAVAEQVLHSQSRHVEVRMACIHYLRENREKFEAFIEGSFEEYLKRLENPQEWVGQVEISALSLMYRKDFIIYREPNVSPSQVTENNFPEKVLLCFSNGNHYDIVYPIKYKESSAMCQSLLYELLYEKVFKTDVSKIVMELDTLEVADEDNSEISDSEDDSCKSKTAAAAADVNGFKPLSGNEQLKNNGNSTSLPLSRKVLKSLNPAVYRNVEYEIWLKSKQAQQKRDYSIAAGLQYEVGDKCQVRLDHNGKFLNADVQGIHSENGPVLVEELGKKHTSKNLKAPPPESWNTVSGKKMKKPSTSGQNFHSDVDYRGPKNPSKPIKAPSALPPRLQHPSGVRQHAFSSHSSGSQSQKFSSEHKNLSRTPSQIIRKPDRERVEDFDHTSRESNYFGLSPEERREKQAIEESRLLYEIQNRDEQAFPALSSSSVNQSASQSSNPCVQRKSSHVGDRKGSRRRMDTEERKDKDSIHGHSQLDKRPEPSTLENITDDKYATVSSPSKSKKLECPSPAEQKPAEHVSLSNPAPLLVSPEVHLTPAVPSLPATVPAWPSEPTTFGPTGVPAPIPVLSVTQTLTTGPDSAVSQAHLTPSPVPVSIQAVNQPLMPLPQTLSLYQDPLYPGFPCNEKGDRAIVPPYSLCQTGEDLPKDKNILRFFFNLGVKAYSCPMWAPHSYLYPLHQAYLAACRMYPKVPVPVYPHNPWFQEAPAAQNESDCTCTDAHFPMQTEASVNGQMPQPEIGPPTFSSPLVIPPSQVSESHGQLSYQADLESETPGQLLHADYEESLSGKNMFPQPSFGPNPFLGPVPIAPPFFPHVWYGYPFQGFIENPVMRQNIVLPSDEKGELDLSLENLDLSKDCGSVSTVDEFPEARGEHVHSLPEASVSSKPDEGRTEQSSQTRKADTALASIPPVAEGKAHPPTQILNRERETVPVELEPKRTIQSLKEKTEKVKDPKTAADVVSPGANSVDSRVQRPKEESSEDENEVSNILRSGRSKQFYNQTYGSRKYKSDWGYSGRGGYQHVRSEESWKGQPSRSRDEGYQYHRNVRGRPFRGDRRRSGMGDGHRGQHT
The experiment can be described thus: pull-down; MBP-OTUD4 held on amylose resin (4 °C, 12 h, washed), then incubated with bacterial lysate containing FLAG-TAK1 at 4 °C for 2 h; Western blot; only the target purified.

B1: HA-TAK1 (protein, UniProt O43318 1-606)
chain: MSTASAASSSSSSSAGEMIEAPSQVLNFEEIDYKEIEVEEVVGRGAFGVVCKAKWRAKDVAIKQIESESERKAFIVELRQLSRVNHPNIVKLYGACLNPVCLVMEYAEGGSLYNVLHGAEPLPYYTAAHAMSWCLQCSQGVAYLHSMQPKALIHRDLKPPNLLLVAGGTVLKICDFGTACDIQTHMTNNKGSAAWMAPEVFEGSNYSEKCDVFSWGIILWEVITRRKPFDEIGGPAFRIMWAVHNGTRPPLIKNLPKPIESLMTRCWSKDPSQRPSMEEIVKIMTHLMRYFPGADEPLQYPCQYSDEGQSNSATSTGSFMDIASTNTSNKSDTNMEQVPATNDTIKRLESKLLKNQAKQQSESGRLSLGASRGSSVESLPPTSEGKRMSADMSEIEARIAATTAYSKPKRGHRKTASFGNILDVPEIVISGNGQPRRRSIQDLTVTGTEPGQVSSRSSSPSVRMITTSGPTSEKPTRSHPWTPDDSTDTNGSDNSIPMAYLTLDHQLQPLAPCPNSKESMAVFEQHCKMAQEYMKVQTEIALLLQRKQELVAELDQDEKDQQNTSRLVQEHKKLLDENKSLSTYYQQCKKQLEVIRSQQQKRQGTS
Regarding B1, the binding result in experiment [1], in experiment [2] and in experiment [3] was “binds” each time.

B2: endogenous TAK1 in H1299 NSCLC cells (protein, UniProt O43318 1-606)
chain: MSTASAASSSSSSSAGEMIEAPSQVLNFEEIDYKEIEVEEVVGRGAFGVVCKAKWRAKDVAIKQIESESERKAFIVELRQLSRVNHPNIVKLYGACLNPVCLVMEYAEGGSLYNVLHGAEPLPYYTAAHAMSWCLQCSQGVAYLHSMQPKALIHRDLKPPNLLLVAGGTVLKICDFGTACDIQTHMTNNKGSAAWMAPEVFEGSNYSEKCDVFSWGIILWEVITRRKPFDEIGGPAFRIMWAVHNGTRPPLIKNLPKPIESLMTRCWSKDPSQRPSMEEIVKIMTHLMRYFPGADEPLQYPCQYSDEGQSNSATSTGSFMDIASTNTSNKSDTNMEQVPATNDTIKRLESKLLKNQAKQQSESGRLSLGASRGSSVESLPPTSEGKRMSADMSEIEARIAATTAYSKPKRGHRKTASFGNILDVPEIVISGNGQPRRRSIQDLTVTGTEPGQVSSRSSSPSVRMITTSGPTSEKPTRSHPWTPDDSTDTNGSDNSIPMAYLTLDHQLQPLAPCPNSKESMAVFEQHCKMAQEYMKVQTEIALLLQRKQELVAELDQDEKDQQNTSRLVQEHKKLLDENKSLSTYYQQCKKQLEVIRSQQQKRQGTS
B2: the binding result in experiment [4] is “binds”.

B3: FLAG-TAK1 (E. coli) (protein, UniProt O43318 1-606)
chain: MSTASAASSSSSSSAGEMIEAPSQVLNFEEIDYKEIEVEEVVGRGAFGVVCKAKWRAKDVAIKQIESESERKAFIVELRQLSRVNHPNIVKLYGACLNPVCLVMEYAEGGSLYNVLHGAEPLPYYTAAHAMSWCLQCSQGVAYLHSMQPKALIHRDLKPPNLLLVAGGTVLKICDFGTACDIQTHMTNNKGSAAWMAPEVFEGSNYSEKCDVFSWGIILWEVITRRKPFDEIGGPAFRIMWAVHNGTRPPLIKNLPKPIESLMTRCWSKDPSQRPSMEEIVKIMTHLMRYFPGADEPLQYPCQYSDEGQSNSATSTGSFMDIASTNTSNKSDTNMEQVPATNDTIKRLESKLLKNQAKQQSESGRLSLGASRGSSVESLPPTSEGKRMSADMSEIEARIAATTAYSKPKRGHRKTASFGNILDVPEIVISGNGQPRRRSIQDLTVTGTEPGQVSSRSSSPSVRMITTSGPTSEKPTRSHPWTPDDSTDTNGSDNSIPMAYLTLDHQLQPLAPCPNSKESMAVFEQHCKMAQEYMKVQTEIALLLQRKQELVAELDQDEKDQQNTSRLVQEHKKLLDENKSLSTYYQQCKKQLEVIRSQQQKRQGTS
On to B3, for which, in experiment [5], the binding result is recorded as “binds”.
